PubChem BioAssay AID1508597, Cure First | 2020

Purpose: 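Knock-downs altering ovarian cancer cell survival with or without PARP inhibitor rucaparib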 (primary screen)
System: human ovarian carcinoma lines grown from tumours: OCI-P5x (papillary serous) and OCI-C5x (clear cell)
Reagent: siRNA pool against human genes, 1.25 pmol siRNA per well
Timing: 72 h or 96 h, depending on the cell culture
Treatment: rucaparib 20 µM (about IC30) or vehicle, present until read-out
Rucaparib or vehicle: Vehicle
Cell line: OCI-C5x (clear cell)
Measurement: 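ATP luminescence measured at 72 or 96 h according to the culture, then normalised and expressed as percent viability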
Scale: viability, normalised: higher = more viable cells remaining
Call rule: 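Active when normalised viability falls below 80 percent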
Meaning of the calls: active = viability under 80%; inactive = viability 80% or more
Shown is a random part of the about 2,100 reagents, in one setting of the screen. 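Calls flag viability under 80% in either arm, not effects specific to rucaparib; the reference for percent is not stated.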 A number with no mark means an inactive call. A reagent listed more than once was tested more than once; the source does not tell the runs apart. No sequences are given here. The record does not give: the 100% reference.

For PRDM10, technical replicate 1, how do the results read?
viability, normalised (%): 51 (active)

For PRDM10, technical replicate 2, how do the results read?
viability, normalised (%): 50.8 (active)

With PRDM10, technical replicate 3, how do the results read?
viability, normalised (%): 44.6 (active)

What did the screen give for GRN, technical replicate 1?
viability, normalised (%): 53.6 (active)

What is on record for GRN, technical replicate 2?
viability, normalised (%): 63.3 (active)

For GRN, technical replicate 3, what was measured?
viability, normalised (%): 60 (active)

For NTRK1, technical replicate 1, how do the results read?
viability, normalised (%): 35 (active)

With NTRK1, technical replicate 1, what does the deposit list?
viability, normalised (%): 109

Which result is listed for NTRK1, technical replicate 1?
viability, normalised (%): 59.4 (active)

With NTRK1, technical replicate 2, what does the deposit list?
viability, normalised (%): 24.3 (active)

For NTRK1, technical replicate 2, what does the deposit list?
viability, normalised (%): 45.6 (active)

With NTRK1, technical replicate 2, what does the deposit list?
viability, normalised (%): 71.2 (active)

With NTRK1, technical replicate 3, how do the results read?
viability, normalised (%): 63.2 (active)

With NTRK1, technical replicate 3, what was measured?
viability, normalised (%): 51.2 (active)

For NTRK1, technical replicate 3, what does the deposit list?
viability, normalised (%): 33.9 (active)

2 entries from above, sorted by “viability, normalised (%)”, lowest first.
NTRK1, technical replicate 1 → viability, normalised (%) = 59.4 (active)
NTRK1, technical replicate 1 → viability, normalised (%) = 109
